These are yes or no findings as the source states them, for the method shown. Some binding calls cover weakened binding; strength is not graded here.
Experiments:
[1] = biological target: cynomolgus monkey C5-his protein (Acro biosystems, Cat#CO5-C52Hx) (cynomolgus monkey); assay: SPR (Biacore T200)
[2] = biological target: mutant human C5 (R885H)-his protein (Acro biosystems, Cat#CO5-H52Hx) (human) (UniProt P01031); assay: SPR (Biacore T200)
[3] = biological target: recombinant human C5-his protein (Sino Biological Inc., Cat#13416-H18H) (human) (UniProt P01031); assay: SPR (Biacore T200)
[4] = biological target: cynomolgus monkey C5-his protein (Acro biosystems, Cat#CO5-C52Hx) (cynomolgus monkey); assay: indirect ELISA, cynomolgus C5-his coated
[5] = biological target: mutant human C5 (R885H)-his protein (Acro biosystems, Cat#CO5-H52Hx) (human) (UniProt P01031); assay: indirect ELISA, human C5 (R885H)-his coated
[6] = biological target: recombinant human C5-his protein (Sino Biological Inc., Cat#13416-H18H) (human) (UniProt P01031); assay: capture ELISA, antibody captured by anti-human IgG Fc, biotin human C5-his

Protein sequences, listed by entry. Tags and fused reporters are not part of them. Lines headed by an entry give the natural chain unless they say otherwise; changes in a name come on top. Chains listed by the source or under a name are the forms on record and can include a tag or linker. Residues count along the entry.
recombinant human C5-his protein (Sino Biological Inc., Cat#13416-H18H) (P01031, residues 19-1676): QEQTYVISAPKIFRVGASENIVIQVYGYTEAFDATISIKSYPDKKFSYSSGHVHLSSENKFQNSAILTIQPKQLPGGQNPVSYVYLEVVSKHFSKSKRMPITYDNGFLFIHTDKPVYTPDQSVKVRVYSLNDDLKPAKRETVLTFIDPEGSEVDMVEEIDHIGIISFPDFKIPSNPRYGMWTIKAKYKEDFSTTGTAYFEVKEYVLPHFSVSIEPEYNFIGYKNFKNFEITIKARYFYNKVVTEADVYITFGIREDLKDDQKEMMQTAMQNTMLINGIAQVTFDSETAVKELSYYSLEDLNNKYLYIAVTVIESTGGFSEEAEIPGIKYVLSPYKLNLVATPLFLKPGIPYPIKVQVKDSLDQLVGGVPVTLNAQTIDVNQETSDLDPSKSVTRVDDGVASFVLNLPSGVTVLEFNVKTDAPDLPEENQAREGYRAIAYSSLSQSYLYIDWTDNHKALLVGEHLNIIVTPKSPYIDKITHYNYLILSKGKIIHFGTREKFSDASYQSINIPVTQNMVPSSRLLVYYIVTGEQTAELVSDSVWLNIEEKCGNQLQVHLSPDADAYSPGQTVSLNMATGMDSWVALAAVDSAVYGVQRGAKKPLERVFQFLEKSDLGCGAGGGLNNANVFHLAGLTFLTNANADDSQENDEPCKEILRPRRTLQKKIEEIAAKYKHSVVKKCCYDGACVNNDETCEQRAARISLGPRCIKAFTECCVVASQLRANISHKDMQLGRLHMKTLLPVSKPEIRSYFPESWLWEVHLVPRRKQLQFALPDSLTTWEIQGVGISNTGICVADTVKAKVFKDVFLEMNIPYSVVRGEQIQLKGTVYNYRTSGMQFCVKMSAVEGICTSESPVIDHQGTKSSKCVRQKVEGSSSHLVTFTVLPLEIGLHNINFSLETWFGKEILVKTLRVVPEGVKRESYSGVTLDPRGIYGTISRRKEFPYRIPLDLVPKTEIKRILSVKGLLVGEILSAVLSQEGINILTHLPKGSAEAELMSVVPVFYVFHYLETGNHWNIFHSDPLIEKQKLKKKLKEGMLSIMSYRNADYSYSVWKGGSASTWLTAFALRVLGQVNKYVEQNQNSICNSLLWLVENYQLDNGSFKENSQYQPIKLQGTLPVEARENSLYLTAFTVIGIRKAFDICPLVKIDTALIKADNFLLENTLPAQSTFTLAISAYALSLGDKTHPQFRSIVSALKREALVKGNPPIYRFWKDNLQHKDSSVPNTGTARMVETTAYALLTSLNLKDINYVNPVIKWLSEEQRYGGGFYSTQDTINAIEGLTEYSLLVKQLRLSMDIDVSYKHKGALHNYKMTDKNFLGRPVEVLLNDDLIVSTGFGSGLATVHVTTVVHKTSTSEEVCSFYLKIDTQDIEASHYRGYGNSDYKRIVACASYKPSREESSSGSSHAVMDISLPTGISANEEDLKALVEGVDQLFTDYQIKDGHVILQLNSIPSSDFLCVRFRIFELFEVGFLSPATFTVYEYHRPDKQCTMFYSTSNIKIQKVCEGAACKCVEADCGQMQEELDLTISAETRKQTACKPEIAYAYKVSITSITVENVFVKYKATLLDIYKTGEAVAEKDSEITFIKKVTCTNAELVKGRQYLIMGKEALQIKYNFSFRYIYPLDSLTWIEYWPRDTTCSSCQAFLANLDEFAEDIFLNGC
mutant human C5 (R885H)-his protein (Acro biosystems, Cat#CO5-H52Hx) (P01031, form named): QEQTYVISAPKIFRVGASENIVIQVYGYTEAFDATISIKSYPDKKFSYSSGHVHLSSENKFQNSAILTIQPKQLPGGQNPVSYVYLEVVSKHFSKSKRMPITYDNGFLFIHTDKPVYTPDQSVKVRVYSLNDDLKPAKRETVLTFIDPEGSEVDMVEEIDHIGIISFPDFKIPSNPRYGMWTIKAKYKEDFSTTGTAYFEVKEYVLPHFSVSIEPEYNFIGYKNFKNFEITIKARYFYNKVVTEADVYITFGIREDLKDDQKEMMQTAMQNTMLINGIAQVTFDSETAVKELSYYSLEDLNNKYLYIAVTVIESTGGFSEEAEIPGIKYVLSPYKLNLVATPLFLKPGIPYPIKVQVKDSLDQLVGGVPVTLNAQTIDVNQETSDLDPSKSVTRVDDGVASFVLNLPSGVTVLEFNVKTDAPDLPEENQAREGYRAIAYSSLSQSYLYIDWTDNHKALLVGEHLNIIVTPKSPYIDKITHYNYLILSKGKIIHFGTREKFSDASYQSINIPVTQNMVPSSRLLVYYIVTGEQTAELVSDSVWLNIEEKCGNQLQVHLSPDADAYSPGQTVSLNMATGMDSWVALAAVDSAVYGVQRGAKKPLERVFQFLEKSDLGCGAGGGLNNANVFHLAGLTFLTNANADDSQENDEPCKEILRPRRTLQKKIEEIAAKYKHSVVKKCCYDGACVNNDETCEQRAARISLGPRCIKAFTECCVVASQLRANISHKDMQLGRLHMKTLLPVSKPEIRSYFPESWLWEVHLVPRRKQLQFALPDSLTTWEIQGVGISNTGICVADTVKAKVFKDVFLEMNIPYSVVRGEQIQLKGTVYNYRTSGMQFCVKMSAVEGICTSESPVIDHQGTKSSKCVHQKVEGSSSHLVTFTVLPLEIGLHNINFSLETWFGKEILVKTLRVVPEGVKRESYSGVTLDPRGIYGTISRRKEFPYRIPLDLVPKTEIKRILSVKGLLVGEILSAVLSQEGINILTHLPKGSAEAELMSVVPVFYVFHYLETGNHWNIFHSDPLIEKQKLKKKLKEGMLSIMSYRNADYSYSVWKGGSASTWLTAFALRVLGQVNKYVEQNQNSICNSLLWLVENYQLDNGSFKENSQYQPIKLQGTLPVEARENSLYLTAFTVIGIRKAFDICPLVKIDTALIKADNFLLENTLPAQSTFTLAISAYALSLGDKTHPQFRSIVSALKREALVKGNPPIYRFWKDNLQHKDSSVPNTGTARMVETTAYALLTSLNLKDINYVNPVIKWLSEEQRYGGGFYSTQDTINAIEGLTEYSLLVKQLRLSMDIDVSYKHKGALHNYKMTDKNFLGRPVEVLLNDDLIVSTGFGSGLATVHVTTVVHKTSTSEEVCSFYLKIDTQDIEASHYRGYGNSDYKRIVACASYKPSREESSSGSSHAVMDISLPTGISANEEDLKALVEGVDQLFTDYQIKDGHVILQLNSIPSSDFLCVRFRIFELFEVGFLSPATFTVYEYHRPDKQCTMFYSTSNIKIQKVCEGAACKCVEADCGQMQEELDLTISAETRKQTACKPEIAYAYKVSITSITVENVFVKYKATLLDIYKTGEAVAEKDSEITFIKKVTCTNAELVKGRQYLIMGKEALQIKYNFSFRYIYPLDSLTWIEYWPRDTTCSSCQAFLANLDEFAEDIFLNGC

Measured: binding

B1: A2E12G12H7 (antibody, V domains shown)
VH: QVQLVQSGAEVKKPGASVKVSCKASGYTFTGYYIHWVRQAPGQGLEWMGWINPNSGSTNSAQKFQDWVTLTRDTSISTAYMELSRLKSDDTAVYYCARRADYYGSGNFYYFDYWGQGTLVTVSS
VL: DIQMTQSPSSVSASVGDRVTISCRASQSISRWLAWYQQKPGKAPKLLIYAATSLQSGVPSRFSGSGFVRDFTLTISSLQPEDFATYYCQQANTFPLIFGGGTKVEIK
binds: all assays above
